In the supplement of paper PMC10849652:
Some of the results follow.

Sequences of proteins named here, by UniProt entry; tags and fusion partners are left off. A change or cut given only in a name is not applied to a line headed by its entry.
UniProt Q99536: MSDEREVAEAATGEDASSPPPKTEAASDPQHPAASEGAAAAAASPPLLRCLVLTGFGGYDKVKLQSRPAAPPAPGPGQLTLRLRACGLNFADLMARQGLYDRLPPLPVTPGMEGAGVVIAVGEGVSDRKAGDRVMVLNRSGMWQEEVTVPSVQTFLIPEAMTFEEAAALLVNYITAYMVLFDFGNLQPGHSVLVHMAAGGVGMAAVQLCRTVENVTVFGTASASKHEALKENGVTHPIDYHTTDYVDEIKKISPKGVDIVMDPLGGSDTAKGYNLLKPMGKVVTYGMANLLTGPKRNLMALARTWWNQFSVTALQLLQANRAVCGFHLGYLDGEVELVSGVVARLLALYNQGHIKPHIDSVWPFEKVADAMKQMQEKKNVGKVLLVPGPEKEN
UniProt Q9NYU1: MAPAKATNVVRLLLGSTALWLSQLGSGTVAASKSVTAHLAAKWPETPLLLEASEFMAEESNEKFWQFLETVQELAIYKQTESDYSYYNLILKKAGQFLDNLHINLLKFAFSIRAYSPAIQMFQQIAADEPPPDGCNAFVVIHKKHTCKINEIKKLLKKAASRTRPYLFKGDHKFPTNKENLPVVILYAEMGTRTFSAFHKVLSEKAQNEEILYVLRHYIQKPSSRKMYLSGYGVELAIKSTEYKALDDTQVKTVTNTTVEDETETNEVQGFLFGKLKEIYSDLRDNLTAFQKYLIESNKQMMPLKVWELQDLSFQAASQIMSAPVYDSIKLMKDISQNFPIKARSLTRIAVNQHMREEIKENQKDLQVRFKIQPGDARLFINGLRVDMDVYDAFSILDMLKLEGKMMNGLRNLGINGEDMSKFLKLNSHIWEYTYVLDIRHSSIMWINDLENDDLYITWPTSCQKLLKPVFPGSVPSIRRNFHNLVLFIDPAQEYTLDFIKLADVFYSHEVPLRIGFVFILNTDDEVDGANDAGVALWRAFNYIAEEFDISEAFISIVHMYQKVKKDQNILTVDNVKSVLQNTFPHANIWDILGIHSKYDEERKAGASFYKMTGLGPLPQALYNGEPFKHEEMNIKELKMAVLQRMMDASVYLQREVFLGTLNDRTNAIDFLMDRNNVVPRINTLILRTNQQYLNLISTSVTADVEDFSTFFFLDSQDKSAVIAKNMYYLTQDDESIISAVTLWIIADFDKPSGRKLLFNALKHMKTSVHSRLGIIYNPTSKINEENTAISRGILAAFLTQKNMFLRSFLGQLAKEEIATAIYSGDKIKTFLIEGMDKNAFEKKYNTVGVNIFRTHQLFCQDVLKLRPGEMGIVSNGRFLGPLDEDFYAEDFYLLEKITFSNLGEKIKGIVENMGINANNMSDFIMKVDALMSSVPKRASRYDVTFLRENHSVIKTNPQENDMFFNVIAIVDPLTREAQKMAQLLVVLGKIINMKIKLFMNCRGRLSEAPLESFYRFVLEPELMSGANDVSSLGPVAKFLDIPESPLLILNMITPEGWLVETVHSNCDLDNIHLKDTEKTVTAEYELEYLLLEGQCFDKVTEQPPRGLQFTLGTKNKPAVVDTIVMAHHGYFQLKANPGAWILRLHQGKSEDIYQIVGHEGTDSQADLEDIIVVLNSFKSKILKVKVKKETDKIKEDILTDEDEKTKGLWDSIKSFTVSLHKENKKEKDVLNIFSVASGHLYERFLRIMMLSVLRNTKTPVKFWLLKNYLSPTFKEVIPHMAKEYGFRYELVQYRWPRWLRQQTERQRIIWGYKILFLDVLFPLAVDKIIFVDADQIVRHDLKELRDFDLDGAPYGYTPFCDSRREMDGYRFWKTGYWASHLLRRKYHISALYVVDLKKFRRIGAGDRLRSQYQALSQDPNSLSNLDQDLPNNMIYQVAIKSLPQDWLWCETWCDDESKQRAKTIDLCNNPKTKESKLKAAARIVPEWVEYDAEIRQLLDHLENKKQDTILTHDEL
UniProt Q8IX04: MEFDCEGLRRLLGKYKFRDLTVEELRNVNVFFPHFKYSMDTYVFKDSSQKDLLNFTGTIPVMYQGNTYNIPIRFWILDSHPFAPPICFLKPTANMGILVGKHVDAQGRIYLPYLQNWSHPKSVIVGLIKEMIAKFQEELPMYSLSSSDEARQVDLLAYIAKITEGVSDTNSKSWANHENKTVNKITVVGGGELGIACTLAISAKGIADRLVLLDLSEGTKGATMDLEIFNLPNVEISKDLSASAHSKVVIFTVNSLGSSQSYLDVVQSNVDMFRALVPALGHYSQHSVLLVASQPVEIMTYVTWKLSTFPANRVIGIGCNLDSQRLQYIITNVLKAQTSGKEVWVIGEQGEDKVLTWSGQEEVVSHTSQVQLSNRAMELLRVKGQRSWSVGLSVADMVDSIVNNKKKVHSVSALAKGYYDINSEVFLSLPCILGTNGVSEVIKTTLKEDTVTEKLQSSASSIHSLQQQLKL
UniProt Q93009, whole entry, looked up: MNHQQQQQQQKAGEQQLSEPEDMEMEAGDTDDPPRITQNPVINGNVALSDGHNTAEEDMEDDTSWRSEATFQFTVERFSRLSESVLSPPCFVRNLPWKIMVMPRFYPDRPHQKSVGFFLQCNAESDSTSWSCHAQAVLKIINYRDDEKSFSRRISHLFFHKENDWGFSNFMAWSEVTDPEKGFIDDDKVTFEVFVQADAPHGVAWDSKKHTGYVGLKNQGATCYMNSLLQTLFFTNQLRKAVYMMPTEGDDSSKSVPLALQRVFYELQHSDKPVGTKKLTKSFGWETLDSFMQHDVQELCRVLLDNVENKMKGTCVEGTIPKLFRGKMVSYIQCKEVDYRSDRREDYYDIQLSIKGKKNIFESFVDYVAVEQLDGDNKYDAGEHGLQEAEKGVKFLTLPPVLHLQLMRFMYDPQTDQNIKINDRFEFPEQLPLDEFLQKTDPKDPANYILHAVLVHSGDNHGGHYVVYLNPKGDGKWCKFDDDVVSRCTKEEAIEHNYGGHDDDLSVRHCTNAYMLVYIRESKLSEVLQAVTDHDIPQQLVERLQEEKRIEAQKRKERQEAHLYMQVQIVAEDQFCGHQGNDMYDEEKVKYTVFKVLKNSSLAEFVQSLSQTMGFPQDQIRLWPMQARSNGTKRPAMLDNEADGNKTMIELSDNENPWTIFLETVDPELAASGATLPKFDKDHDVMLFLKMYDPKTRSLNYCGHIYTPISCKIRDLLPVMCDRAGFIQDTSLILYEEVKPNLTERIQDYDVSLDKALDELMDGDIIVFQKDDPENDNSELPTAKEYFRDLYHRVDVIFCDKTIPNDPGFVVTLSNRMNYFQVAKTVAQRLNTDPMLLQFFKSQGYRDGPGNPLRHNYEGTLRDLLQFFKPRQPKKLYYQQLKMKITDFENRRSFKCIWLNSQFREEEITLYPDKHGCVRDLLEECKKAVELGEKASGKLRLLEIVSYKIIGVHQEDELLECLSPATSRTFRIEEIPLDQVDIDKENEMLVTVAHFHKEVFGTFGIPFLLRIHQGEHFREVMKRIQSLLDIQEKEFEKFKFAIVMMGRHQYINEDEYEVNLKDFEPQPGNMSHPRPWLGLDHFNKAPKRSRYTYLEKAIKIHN
UniProt O95292, whole entry, looked up: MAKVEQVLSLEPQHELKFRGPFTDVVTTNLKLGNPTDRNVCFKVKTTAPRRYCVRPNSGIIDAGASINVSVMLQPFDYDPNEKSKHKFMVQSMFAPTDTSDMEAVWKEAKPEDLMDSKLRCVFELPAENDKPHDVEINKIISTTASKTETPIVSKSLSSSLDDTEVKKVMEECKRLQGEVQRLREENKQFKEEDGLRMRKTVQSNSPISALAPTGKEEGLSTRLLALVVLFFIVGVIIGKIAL
UniProt O94763, whole entry, looked up: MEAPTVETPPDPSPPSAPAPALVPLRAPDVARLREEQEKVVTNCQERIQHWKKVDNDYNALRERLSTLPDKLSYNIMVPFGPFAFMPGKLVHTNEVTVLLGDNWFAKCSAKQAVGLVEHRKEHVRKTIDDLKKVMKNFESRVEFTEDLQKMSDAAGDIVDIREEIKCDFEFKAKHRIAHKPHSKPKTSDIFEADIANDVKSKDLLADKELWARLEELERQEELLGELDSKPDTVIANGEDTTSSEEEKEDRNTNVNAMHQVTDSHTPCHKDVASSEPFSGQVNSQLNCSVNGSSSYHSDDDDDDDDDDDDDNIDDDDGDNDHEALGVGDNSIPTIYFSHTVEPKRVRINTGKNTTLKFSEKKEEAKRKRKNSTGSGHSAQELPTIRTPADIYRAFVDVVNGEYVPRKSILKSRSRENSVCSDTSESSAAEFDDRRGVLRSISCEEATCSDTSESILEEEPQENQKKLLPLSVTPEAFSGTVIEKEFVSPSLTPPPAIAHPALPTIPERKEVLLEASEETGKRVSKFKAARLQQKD
UniProt O94966: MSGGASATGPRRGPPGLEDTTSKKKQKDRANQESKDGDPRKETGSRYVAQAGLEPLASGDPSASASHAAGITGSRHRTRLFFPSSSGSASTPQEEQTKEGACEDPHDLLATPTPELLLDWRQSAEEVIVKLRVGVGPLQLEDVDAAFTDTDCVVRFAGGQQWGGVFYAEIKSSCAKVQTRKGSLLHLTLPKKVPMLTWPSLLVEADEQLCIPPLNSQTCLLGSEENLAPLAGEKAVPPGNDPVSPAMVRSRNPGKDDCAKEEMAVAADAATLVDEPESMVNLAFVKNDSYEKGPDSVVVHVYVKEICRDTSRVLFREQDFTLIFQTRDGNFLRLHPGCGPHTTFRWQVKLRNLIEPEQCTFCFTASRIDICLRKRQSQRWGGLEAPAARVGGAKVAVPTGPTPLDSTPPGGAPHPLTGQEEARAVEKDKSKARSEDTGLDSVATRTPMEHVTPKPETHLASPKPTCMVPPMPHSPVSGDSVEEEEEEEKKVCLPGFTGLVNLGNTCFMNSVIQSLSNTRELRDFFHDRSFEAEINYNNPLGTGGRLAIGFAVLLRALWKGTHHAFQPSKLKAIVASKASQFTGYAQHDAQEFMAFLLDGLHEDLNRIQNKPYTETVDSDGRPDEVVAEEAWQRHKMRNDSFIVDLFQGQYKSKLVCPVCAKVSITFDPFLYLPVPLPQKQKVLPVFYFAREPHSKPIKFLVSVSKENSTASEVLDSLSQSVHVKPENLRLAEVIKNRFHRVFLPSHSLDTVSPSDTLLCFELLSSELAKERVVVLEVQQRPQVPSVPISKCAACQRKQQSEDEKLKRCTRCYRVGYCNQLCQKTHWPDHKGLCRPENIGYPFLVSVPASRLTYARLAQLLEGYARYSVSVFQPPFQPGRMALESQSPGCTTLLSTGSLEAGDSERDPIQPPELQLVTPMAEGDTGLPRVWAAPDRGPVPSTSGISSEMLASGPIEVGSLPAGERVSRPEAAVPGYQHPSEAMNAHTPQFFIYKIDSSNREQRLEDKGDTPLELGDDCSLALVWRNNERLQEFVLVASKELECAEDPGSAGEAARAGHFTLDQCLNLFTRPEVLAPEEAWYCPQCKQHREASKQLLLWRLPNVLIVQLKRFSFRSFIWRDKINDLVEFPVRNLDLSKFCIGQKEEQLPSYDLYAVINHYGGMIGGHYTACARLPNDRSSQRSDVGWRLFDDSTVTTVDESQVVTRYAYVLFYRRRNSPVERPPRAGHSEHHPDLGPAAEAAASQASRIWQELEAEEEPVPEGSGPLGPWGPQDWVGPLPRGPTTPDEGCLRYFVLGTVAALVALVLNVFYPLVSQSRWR
UniProt O60763: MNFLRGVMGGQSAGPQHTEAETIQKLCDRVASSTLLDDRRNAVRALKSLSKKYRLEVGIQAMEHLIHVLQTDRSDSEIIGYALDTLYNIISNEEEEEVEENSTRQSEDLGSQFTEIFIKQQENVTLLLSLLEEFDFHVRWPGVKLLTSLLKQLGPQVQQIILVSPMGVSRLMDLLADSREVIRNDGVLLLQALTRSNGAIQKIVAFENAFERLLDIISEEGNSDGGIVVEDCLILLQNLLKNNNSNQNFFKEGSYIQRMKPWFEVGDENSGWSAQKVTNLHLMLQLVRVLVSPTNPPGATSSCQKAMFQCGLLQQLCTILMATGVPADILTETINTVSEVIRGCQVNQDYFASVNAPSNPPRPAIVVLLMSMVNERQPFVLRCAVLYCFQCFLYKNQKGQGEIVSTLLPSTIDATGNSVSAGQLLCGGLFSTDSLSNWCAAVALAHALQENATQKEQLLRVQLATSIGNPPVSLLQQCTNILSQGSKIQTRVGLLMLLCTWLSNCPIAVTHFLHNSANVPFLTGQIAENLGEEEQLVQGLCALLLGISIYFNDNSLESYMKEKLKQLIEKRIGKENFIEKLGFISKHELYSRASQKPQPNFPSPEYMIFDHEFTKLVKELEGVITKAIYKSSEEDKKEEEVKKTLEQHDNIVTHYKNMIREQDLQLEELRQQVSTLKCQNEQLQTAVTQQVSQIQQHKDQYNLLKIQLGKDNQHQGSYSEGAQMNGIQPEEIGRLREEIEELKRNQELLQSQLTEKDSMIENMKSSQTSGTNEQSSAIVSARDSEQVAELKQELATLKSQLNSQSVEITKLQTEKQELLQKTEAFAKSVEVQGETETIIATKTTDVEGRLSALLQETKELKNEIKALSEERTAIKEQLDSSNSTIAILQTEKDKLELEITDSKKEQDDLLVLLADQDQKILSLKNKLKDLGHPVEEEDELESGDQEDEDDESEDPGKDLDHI

What was measured:
Assay in all cases: log2 fold change, soluble protein after heating vs DMSO (PISA); higher = thermal stabilisation; K562 lysate, 10 uM; active = over 0.2 and 3.5 SD of the protein, either way, in both replicates (recomputed)
lapatinib = compound: CS(=O)(=O)CCNCc1ccc(-c2ccc3ncnc(Nc4ccc(OCc5cccc(F)c5)c(Cl)c4)c3c2)o1 [lapatinib]
Procedure, shortened: (§1)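 Pellets of K562 cells were dounce-homogenised in PBS pH 7.4 with 1 mM MgCl2, and the crude extract was held at 1 mg/mL protein for a 30 min treatment with 10 μM compound. Aliquots were heated for 3 min over 48°C-58°C and pooled before NP-40 was added to 0.5% at 4°C. The supernatant from 21,000xg for 90 min was quantified by TMTpro 16plex LC-MS/MS with channel sums equalised. Values are reported from duplicates as log-two fold change in thermal stability relative to solvent controls.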

pictilisib = compound: CS(=O)(=O)N1CCN(Cc2cc3nc(-c4cccc5[nH]ncc45)nc(N4CCOCC4)c3s2)CC1 [pictilisib]
Procedure, shortened: as §1

crizotinib = compound: C[C@@H](Oc1cc(-c2cnn(C3CCNCC3)c2)cnc1N)c1c(Cl)ccc(F)c1Cl [crizotinib]
Procedure, shortened: as §1

[1] = compound: C[C@H](C1=CC=C(C=C1)C(=O)NC2=C3C=CNC3=NC=C2)N
Procedure, shortened: as §1

duvelisib = compound: C[C@H](Nc1ncnc2nc[nH]c12)c1cc2cccc(Cl)c2c(=O)n1-c1ccccc1 [duvelisib]
Procedure, shortened: as §1

gandotinib = compound: Cc1cc(Nc2cc(CN3CCOCC3)c3nc(C)c(Cc4ccc(Cl)cc4F)n3n2)n[nH]1 [gandotinib]
Procedure, shortened: as §1

tozasertib = compound: Cc1cc(Nc2cc(N3CCN(C)CC3)nc(Sc3ccc(NC(=O)C4CC4)cc3)n2)n[nH]1 [tozasertib]
Procedure, shortened: as §1

doramapimod = compound: Cc1ccc(-n2nc(C(C)(C)C)cc2NC(=O)Nc2ccc(OCCN3CCOCC3)c3ccccc23)cc1 [doramapimod]
Procedure, shortened: as §1

bafetinib = compound: Cc1ccc(NC(=O)c2ccc(CN3CC[C@H](N(C)C)C3)c(C(F)(F)F)c2)cc1Nc1nccc(-c2cncnc2)n1 [bafetinib]
Procedure, shortened: as §1

[2] = compound: Cc1cccc(CC(=O)N2CCc3c2ccc(-c2cn(C)c4ncnc(N)c24)c3F)n1
Procedure, shortened: as §1

nilotinib = compound: Cc1cn(-c2cc(NC(=O)c3ccc(C)c(Nc4nccc(-c5cccnc5)n4)c3)cc(C(F)(F)F)c2)cn1 [nilotinib]
Procedure, shortened: as §1

[3] = compound: Cc1nc(Nc2n[nH]c3c2CN(C(=O)N[C@H](CN(C)C)c2ccccc2)C3(C)C)c2sccc2n1
Procedure, shortened: as §1

dasatinib = compound: Cc1nc(Nc2ncc(C(=O)Nc3c(C)cccc3Cl)s2)cc(N2CCN(CCO)CC2)n1 [dasatinib]
Procedure, shortened: as §1

[4] = compound: Cc1ncc(-c2ccnc(Nc3ccc(S(C)(=O)=O)cc3)n2)n1C(C)C
Procedure, shortened: as §1

[5] = compound: Cn1cc(-c2ccc3c(c2)CCN3C(=O)Cc2cccc(C(F)(F)F)c2)c2c(N)ncnc21
Procedure, shortened: as §1

quisinostat = compound: Cn1cc(CNCC2CCN(c3ncc(C(=O)NO)cn3)CC2)c2ccccc21 [quisinostat]
Procedure, shortened: as §1

tipifarnib = compound: Cn1cncc1[C@@](N)(c1ccc(Cl)cc1)c1ccc2c(c1)c(-c1cccc(Cl)c1)cc(=O)n2C [tipifarnib]
Procedure, shortened: as §1

[6] = compound: NC(=O)Nc1cc(-c2cccc(F)c2)sc1C(=O)N[C@H]1CCCNC1
Procedure, shortened: as §1

[7] = compound: NC(=O)c1cnc(N[C@@H]2CCCC[C@@H]2N)nc1Nc1cccc(-n2nccn2)c1
Procedure, shortened: as §1

[8] = compound: NC1(c2ccc(-c3nc4ccn5c(=O)[nH]nc5c4cc3-c3ccccc3)cc2)CCC1
Procedure, shortened: as §1

Measured: log2 fold change

VAT1 (UniProt Q99536)
inactive: lapatinib -0.022 | pictilisib -0.034 | crizotinib 0.026 | [1] -0.004 | duvelisib 0.001 | gandotinib -0.001 | tozasertib 0.003 | doramapimod -0.013 | bafetinib 0.025 | [2] -0.048 | nilotinib 0.041 | [3] 0.017 | dasatinib 0.032 | [4] 0.024 | [5] -0.027 | quisinostat 0.012 | tipifarnib 0.013 | [6] -0.019 | [7] -0.037 | [8] 0.007

UNC13D (UniProt Q70J99)
inactive: lapatinib -0.032 | pictilisib -0.032 | crizotinib -0.038 | [1] 0.029 | duvelisib -0.039 | gandotinib -0.089 | tozasertib -0.015 | doramapimod 0.009 | bafetinib -0.066 | [2] 0.002 | nilotinib 0.043 | [3] -0.014 | dasatinib -0.05 | [4] 0 | [5] 0 | quisinostat -0.079 | tipifarnib -0.006 | [6] 0.05 | [7] 0.022 | [8] -0.024

UPRT (UniProt Q96BW1)
inactive: lapatinib -0.133 | pictilisib -0.033 | crizotinib -0.029 | [1] -0.016 | duvelisib -0.013 | gandotinib -0.035 | tozasertib -0.019 | doramapimod 0.044 | bafetinib 0.014 | [2] -0.016 | nilotinib 0.052 | [3] 0.171 | dasatinib -0.041 | [4] 0.024 | [5] -0.058 | quisinostat -0.018 | tipifarnib 0.028 | [6] 0 | [7] 0.061 | [8] -0.033

UGGT2 (UniProt Q9NYU1)
inactive: lapatinib -0.008 | pictilisib 0.096 | crizotinib -0.025 | [1] -0.014 | duvelisib 0.075 | gandotinib -0.045 | tozasertib -0.04 | doramapimod -0.001 | bafetinib -0.066 | [2] 0.058 | nilotinib -0.01 | [3] -0.09 | dasatinib 0.003 | [4] -0.116 | [5] -0.039 | quisinostat 0.011 | tipifarnib -0.051 | [6] 0.017 | [7] 0.009 | [8] 0.017

Two records picked at random from those above, as already listed:
VAT1 (UniProt Q99536)
inactive: lapatinib -0.022 | pictilisib -0.034 | crizotinib 0.026 | [1] -0.004 | duvelisib 0.001 | gandotinib -0.001 | tozasertib 0.003 | doramapimod -0.013 | bafetinib 0.025 | [2] -0.048 | nilotinib 0.041 | [3] 0.017 | dasatinib 0.032 | [4] 0.024 | [5] -0.027 | quisinostat 0.012 | tipifarnib 0.013 | [6] -0.019 | [7] -0.037 | [8] 0.007

UPRT (UniProt Q96BW1)
inactive: lapatinib -0.133 | pictilisib -0.033 | crizotinib -0.029 | [1] -0.016 | duvelisib -0.013 | gandotinib -0.035 | tozasertib -0.019 | doramapimod 0.044 | bafetinib 0.014 | [2] -0.016 | nilotinib 0.052 | [3] 0.171 | dasatinib -0.041 | [4] 0.024 | [5] -0.058 | quisinostat -0.018 | tipifarnib 0.028 | [6] 0 | [7] 0.061 | [8] -0.033

The listing continues.

UEVLD (UniProt Q8IX04)
inactive: lapatinib -0.024 | pictilisib -0.038 | crizotinib -0.028 | [1] -0.045 | duvelisib -0.002 | gandotinib -0.023 | tozasertib -0.019 | doramapimod 0.036 | bafetinib 0.01 | [2] 0.009 | nilotinib 0.009 | [3] -0.013 | dasatinib -0.027 | [4] 0.023 | [5] 0.033 | quisinostat -0.024 | tipifarnib -0.007 | [6] 0.001 | [7] -0.028 | [8] 0.025

USP7 (UniProt Q93009)
inactive: lapatinib -0.015 | pictilisib -0.006 | crizotinib -0.016 | [1] -0.057 | duvelisib -0.011 | gandotinib -0.007 | tozasertib -0.017 | doramapimod 0.023 | bafetinib -0.001 | [2] 0.063 | nilotinib 0.002 | [3] -0.002 | dasatinib -0.038 | [4] -0.018 | [5] 0.019 | quisinostat -0.012 | tipifarnib 0.001 | [6] 0.03 | [7] 0.007 | [8] -0.016

UQCRQ (UniProt O14949)
inactive: lapatinib 0.004 | pictilisib 0.042 | crizotinib 0.007 | [1] 0.159 | duvelisib 0.003 | gandotinib -0.068 | tozasertib 0.008 | doramapimod 0.025 | bafetinib 0.043 | [2] -0.001 | nilotinib 0.038 | [3] 0 | dasatinib 0.017 | [4] -0.014 | [5] -0.018 | quisinostat -0.004 | tipifarnib -0.008 | [6] 0.008 | [7] -0.021 | [8] 0.013

VAPB (UniProt O95292)
inactive: lapatinib 0.011 | pictilisib 0.031 | crizotinib 0.026 | [1] -0.067 | duvelisib -0.01 | gandotinib 0.045 | tozasertib -0.002 | doramapimod 0.036 | bafetinib 0.009 | [2] 0.035 | nilotinib 0.027 | [3] 0.025 | dasatinib 0.06 | [4] 0.007 | [5] 0.05 | quisinostat 0.023 | tipifarnib -0.014 | [6] -0.021 | [7] -0.017 | [8] -0.023

URI1 (UniProt O94763)
inactive: lapatinib -0.001 | pictilisib 0.01 | crizotinib 0.006 | [1] 0.02 | duvelisib -0.005 | gandotinib 0.018 | tozasertib 0.075 | doramapimod -0.018 | bafetinib -0.045 | [2] -0.012 | nilotinib 0.002 | [3] -0.003 | dasatinib 0.017 | [4] -0.034 | [5] -0.005 | quisinostat -0.015 | tipifarnib -0.02 | [6] -0.014 | [7] -0.04 | [8] 0.006

VARS2, A0A0G2JL52
inactive: lapatinib -0.002 | pictilisib -0.059 | crizotinib -0.012 | [1] -0.125 | duvelisib -0.014 | gandotinib 0.041 | tozasertib 0.027 | doramapimod 0.012 | bafetinib -0.015 | [2] 0.109 | nilotinib 0.056 | [3] -0.114 | dasatinib -0.072 | [4] 0.024 | [5] 0.009 | quisinostat -0.027 | tipifarnib -0.054 | [6] -0.012 | [7] 0.026 | [8] -0.039

USP8 (UniProt P40818)
inactive: lapatinib -0.011 | pictilisib -0.048 | crizotinib -0.009 | [1] 0.002 | duvelisib -0.023 | gandotinib -0.077 | tozasertib -0.013 | doramapimod 0.001 | bafetinib -0.026 | [2] 0.017 | nilotinib -0.014 | [3] -0.007 | dasatinib 0.005 | [4] 0.042 | [5] 0.024 | quisinostat -0.015 | tipifarnib -0.01 | [6] 0.016 | [7] -0.016 | [8] 0.026

UTP18 (UniProt Q9Y5J1)
inactive: lapatinib 0.032 | pictilisib 0.125 | crizotinib -0.05 | [1] 0.097 | duvelisib -0.065 | gandotinib -0.055 | tozasertib 0.074 | doramapimod -0.025 | bafetinib -0.084 | [2] -0.038 | nilotinib 0.059 | [3] -0.009 | dasatinib 0.005 | [4] -0.179 | [5] -0.03 | quisinostat -0.034 | tipifarnib -0.002 | [6] 0.058 | [7] -0.016 | [8] 0.074

UXT isoform 2 (UniProt Q9UBK9)
inactive: lapatinib -0.018 | pictilisib -0.073 | crizotinib 0.003 | [1] -0.018 | duvelisib -0.006 | gandotinib 0.084 | tozasertib -0.053 | doramapimod 0.012 | bafetinib 0.089 | [2] 0.065 | nilotinib 0.012 | [3] -0.019 | dasatinib 0.079 | [4] 0.019 | [5] -0.05 | quisinostat -0.03 | tipifarnib -0.015 | [6] -0.04 | [7] -0.026 | [8] -0.036

USP19 isoform 6 (UniProt O94966)
inactive: lapatinib -0.034 | pictilisib -0.031 | crizotinib -0.004 | [1] -0.015 | duvelisib 0.046 | gandotinib -0.021 | tozasertib -0.022 | doramapimod -0.027 | bafetinib -0.026 | [2] 0.004 | nilotinib 0.014 | [3] 0.01 | dasatinib 0 | [4] -0.007 | [5] 0.009 | quisinostat -0.001 | tipifarnib 0.033 | [6] 0.006 | [7] 0.006 | [8] 0.002

USO1 (UniProt O60763)
inactive: lapatinib 0.19 | pictilisib -0.067 | crizotinib -0.026 | [1] 0.014 | duvelisib -0.169 | gandotinib 0.193 | tozasertib 0.038 | doramapimod 0.054 | bafetinib -0.089 | [2] -0.066 | nilotinib 0.026 | [3] -0.014 | dasatinib -0.141 | [4] -0.048 | [5] 0.009 | quisinostat 0.087 | tipifarnib -0.085 | [6] 0.046 | [7] -0.052 | [8] 0

USP34 (UniProt Q70CQ2)
inactive: lapatinib -0.002 | pictilisib -0.008 | crizotinib -0.094 | [1] 0.03 | duvelisib 0.004 | gandotinib -0.122 | tozasertib 0.011 | doramapimod 0.01 | bafetinib -0.041 | [2] 0.018 | nilotinib -0.018 | [3] -0.002 | dasatinib -0.042 | [4] -0.018 | [5] 0.023 | quisinostat -0.041 | tipifarnib 0.021 | [6] 0.074 | [7] 0.018 | [8] 0
